# About 210 (0.062%) of roughly 340,000 compounds were called active. Inconclusive results, whose numbers are uncertain, are shown with a selection of clear calls. No stated cut-off is given here; in the data, active means inhibition above about 30% (passing the limit was not always enough); inconclusive means no clear call, values can overlap the other calls.
# Tested on: PvdQ acylase [Pseudomonas aeruginosa LESB58]
# Assay: P. aeruginosa PvdQ acylase inhibitors, primary screen, biochemical, fluorescence, plate reader and imaging, single point (AID 488965);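 further: 0% = vehicle neutral wells and 100% = reference inhibitor wells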
# Settings: purified PvdQ acylase, at 10 µM, active compounds read high
row,SMILES,inhibition
1,Nc1nc(-c2ccc(Cl)cc2)nn1C(=O)c1ccco1,inconclusive: 31.5%
2,COc1ccc(Cl)cc1C(=O)Nc1ccc(N(C)C(C)=O)cc1,inconclusive: 32.9%
3,CC(=O)Nc1ccc(-n2nnnc2SCC(=O)Nc2cccc(NC(=O)c3ccco3)c2)cc1,inactive: -7.4%
4,Cc1cc(=O)[nH]c(SCC(=O)Nc2ccc(Br)cn2)n1,inconclusive: 31.6%
5,Cc1onc(-c2ccccc2)c1C(=O)c1c[nH]c(C(=O)NCCCN2CCOCC2)c1,inconclusive: 31.6%
6,COc1ccc(OC)c(C(=O)c2oc3ccccc3c2NC(C)=O)c1,inconclusive: 34.4%
7,CCOc1ccc(NC(=S)NCc2cccnc2)cc1,inconclusive: 37.4%
8,Cc1ccc2nc(-c3ccc(NS(=O)(=O)c4ccc(F)cc4)cc3)sc2c1,active: 30.2%
9,O=C(Nc1cccc(NC(=O)c2sc3ccccc3c2Cl)c1)c1ccco1,inconclusive: 36.7%
10,CN(c1ccc(C(=O)NC2CC3CCC2C3)cc1)S(C)(=O)=O (stereo not given),inconclusive: 69.1%
11,CCOC(=O)c1cc2c(s1)-c1c(C)cccc1OC2,active: 68.2%
12,CCOC(=O)/C(C#N)=C/c1ccc(SC)cc1,active: 44.8%
13,CC(=O)N/C(=N/c1nc(C)cc(C)n1)Nc1ccc(C)cc1C,inconclusive: 32.9%
14,N#CC(c1ccc(Cl)nn1)c1c(F)cccc1Cl (stereo not given),active: 66.4%
15,O=S(=O)(NCCc1ccccc1)c1cccc2cccnc12,inactive: 1.06%
16,Cc1nc(Nc2nc3ccccc3o2)nc2c1CCC2,inactive: -2.03%
17,O=C(CCc1ccccc1)Nc1ccc2c(c1)OCO2,inconclusive: 31.5%
18,O=C(NCCCn1ccnc1)c1nn2c(C(F)(F)F)cc(-c3ccccc3)nc2c1Cl,active: 51.1%
19,O=C(/C=C/c1ccc(Cl)c([N+](=O)[O-])c1)c1ccc(O)cc1,active: 42%
20,Cc1ccccc1Nc1nc(N)nc(COC(=O)c2cccc(S(=O)(=O)NCc3ccccc3)c2)n1,inactive: -17.7%
21,CN(C)CCNC(=O)c1ccc(-c2nn(C)c(=O)c3ccccc23)cc1,inactive: 7.31%
22,COc1cccc(C(=O)Nc2nnc(S(=O)(=O)N3CCCC3)s2)c1,inactive: -9.49%
23,Cc1noc(C)c1CSc1nc2ccccc2c(=O)n1-c1ccc(Cl)cc1,inactive: -2.88%
24,N#Cc1cc([N+](=O)[O-])ccc1N1CCCC1,active: 89.5%

# In another format: results already given
row | SMILES | inhibition
1 | Nc1nc(-c2ccc(Cl)cc2)nn1C(=O)c1ccco1 | inconclusive: 31.5%
2 | COc1ccc(Cl)cc1C(=O)Nc1ccc(N(C)C(C)=O)cc1 | inconclusive: 32.9%
4 | Cc1cc(=O)[nH]c(SCC(=O)Nc2ccc(Br)cn2)n1 | inconclusive: 31.6%
5 | Cc1onc(-c2ccccc2)c1C(=O)c1c[nH]c(C(=O)NCCCN2CCOCC2)c1 | inconclusive: 31.6%
6 | COc1ccc(OC)c(C(=O)c2oc3ccccc3c2NC(C)=O)c1 | inconclusive: 34.4%
8 | Cc1ccc2nc(-c3ccc(NS(=O)(=O)c4ccc(F)cc4)cc3)sc2c1 | active: 30.2%
9 | O=C(Nc1cccc(NC(=O)c2sc3ccccc3c2Cl)c1)c1ccco1 | inconclusive: 36.7%
10 | CN(c1ccc(C(=O)NC2CC3CCC2C3)cc1)S(C)(=O)=O (stereo not given) | inconclusive: 69.1%
12 | CCOC(=O)/C(C#N)=C/c1ccc(SC)cc1 | active: 44.8%
14 | N#CC(c1ccc(Cl)nn1)c1c(F)cccc1Cl (stereo not given) | active: 66.4%
16 | Cc1nc(Nc2nc3ccccc3o2)nc2c1CCC2 | inactive: -2.03%
18 | O=C(NCCCn1ccnc1)c1nn2c(C(F)(F)F)cc(-c3ccccc3)nc2c1Cl | active: 51.1%
19 | O=C(/C=C/c1ccc(Cl)c([N+](=O)[O-])c1)c1ccc(O)cc1 | active: 42%
20 | Cc1ccccc1Nc1nc(N)nc(COC(=O)c2cccc(S(=O)(=O)NCc3ccccc3)c2)n1 | inactive: -17.7%
21 | CN(C)CCNC(=O)c1ccc(-c2nn(C)c(=O)c3ccccc23)cc1 | inactive: 7.31%
22 | COc1cccc(C(=O)Nc2nnc(S(=O)(=O)N3CCCC3)s2)c1 | inactive: -9.49%
23 | Cc1noc(C)c1CSc1nc2ccccc2c(=O)n1-c1ccc(Cl)cc1 | inactive: -2.88%
24 | N#Cc1cc([N+](=O)[O-])ccc1N1CCCC1 | active: 89.5%

# Continued.

row,SMILES,inhibition
1,O=C(Nc1ccc(C2=NCCN2)cc1)c1ccc(C(=O)Nc2ccc(C3=NCCN3)cc2)c([N+](=O)[O-])c1,inactive: -5.38%
2,CCOC(=O)C(Oc1ccc(=O)[nH]n1)C(C)=O (stereo not given),inconclusive: 34.2%
3,Cc1ccc(S(=O)(=O)NCc2ccccn2)cc1C,inconclusive: 30.5%
4,O=C(c1ccccc1)N1N=C(c2cccs2)CC1c1ccccc1O (stereo not given),inactive: 8.87%
5,CCOC(=S)SCC(=O)Nc1nccs1,inconclusive: 31.3%
6,Cc1cccc(OCc2nc(-c3nonc3N)no2)c1C,inactive: -12.7%
7,O=C(Nc1ccc(Cl)c(-c2nc3ccccc3[nH]2)c1)c1ccc2c(c1)OCO2,inactive: -3.56%
8,O=C(O)c1ccccc1OC(C(=O)Nc1cc(Cl)cc(Cl)c1)c1ccccc1 (stereo not given),inactive: -3.12%
9,O=C(NCCc1ccc2c(c1)OCCO2)c1ccccc1F,inconclusive: 42.8%
10,COc1cc(NC(=S)NC2CC(C)(C)NC(C)(C)C2)cc(OC)c1,inconclusive: 35.2%
11,N#C/C(=C\c1ccc([N+](=O)[O-])cc1)c1ccccn1,inconclusive: 31.1%
12,O=C(c1ccc(-c2ccccc2)cc1)C1CCCN(C(=O)c2cncs2)C1 (stereo not given),active: 46.5%
13,NC(=O)c1ccc(NC(=O)COC(=O)c2n[nH]c3ccccc23)cc1,inconclusive: 33%
14,CS(=O)(=O)c1ccc2sc(NC(=O)c3cc4ccccc4o3)nc2c1,inconclusive: 30.7%
15,Cc1cc(C)n2c(SCC(=O)Nc3ccc(F)cc3)nnc2n1,inconclusive: 32.1%
16,COc1ccc(CCNC(=O)C(=O)N/N=C/c2cccs2)cc1OC,inactive: -12%
17,Cn1nnnc1SCC(=O)NCCCc1ccccc1,inconclusive: 30.5%
18,CCC(=O)N1N=C(c2ccc(C)o2)CC1c1ccc(N(C)C)cc1 (stereo not given),inconclusive: 33.7%
19,COc1ccc(-c2nn(-c3ccccc3)cc2/C=C2/SC(=S)N(CCC(=O)O)C2=O)cc1,inconclusive: 41.5%
20,O=C(O)CC1S/C(=N/N=C/C=C/c2ccccc2)NC1=O (stereo not given),inconclusive: 32.9%
21,O=C(NC1CCCCCCC1)c1cc(F)c(F)cc1Cl,inconclusive: 31.3%
22,CC(C)Oc1ccc(CC2CCC(=O)N(C)C2=O)cc1 (stereo not given),inconclusive: 39.7%
23,NC(=O)c1ncn([C@@H]2O[C@H](CNCc3ccc(-c4cc(C(F)(F)F)ccc4Cl)o3)[C@@H](O)[C@H]2O)n1,inconclusive: 30.9%
24,COc1ccc(OC2CCN(S(=O)(=O)c3ccc(OC)c(OC)c3)CC2)cc1,inconclusive: 31.3%

row,SMILES,inhibition
1,Cc1cccc(NC(=O)Nc2ccccn2)c1C,inactive: 1.3%
2,CCOC(=O)c1ccc(Nc2ncccc2[N+](=O)[O-])cc1,active: 44.5%
3,Nc1c(C(=O)NC2CCCC2)sc2nc(-c3cccs3)ccc12,inactive: 0.0295%
4,Cc1ccc2c(c1)C1C3CCC(C3)C1S(=O)N2 (stereo not given),active: 56.6%
5,CCCSC1=C(C#N)C(c2ccc(OC)cc2)C2=C(CC(C)(C)CC2=O)N1 (stereo not given),inconclusive: 32.7%
6,CCOC(=O)/C(C#N)=C/c1c(N2CCCCCC2)nc2ccccn2c1=O,inconclusive: 30.7%
7,CS(=O)(=O)N1CCN(C(=O)Nc2ccccc2)CC1,inconclusive: 31.6%
8,CCOC(=O)c1ccc(-c2ccc(C=O)o2)cc1,inconclusive: 56.1%
9,COc1ccc(S(=O)(=O)NCCc2ccccc2)c2cccnc12,inconclusive: 30.1%
10,O=C(Nc1cccc(Br)c1)c1ccc2c(c1)SC1=NS(=O)(=O)CCN12,inconclusive: 30.7%
11,CCN(CC(=O)NCc1ccc(F)cc1)CC(=O)Nc1ccccc1-c1ccccc1,inactive: -1.06%
12,COc1ccc(CC(=O)NNC(=S)NCC2CC2)cc1OC,inconclusive: 31.5%
13,COc1ccc(C(C#N)c2ccc(Cl)nn2)cc1 (stereo not given),active: 46.1%
14,Cc1ccc(C(C#N)c2ccc(Cl)nn2)cc1 (stereo not given),active: 85.8%
15,Cc1ccc(S(=O)(=O)NNc2ccccc2)c(C)c1,inactive: -8.13%
16,COc1ccc(C[C@@H]2OC3(C=CC(=O)C=C3)O[C@H]2Cc2ccc(OC)cc2)cc1,inactive: -1.88%
17,O=C(CCl)N(c1ccccc1)C1CCCCC1,inactive: 3.21%
18,N#CC(c1ccc(Cl)nn1)c1ccc(Cl)cc1Cl (stereo not given),active: 114%
19,CN(c1ccc(C(=O)Nc2ccc3c(c2)OCCO3)cc1)S(C)(=O)=O,inconclusive: 32.7%
20,Cc1ccc(SCC(=O)Nc2ccc(F)cc2[N+](=O)[O-])cc1C,inconclusive: 34.7%
21,CCOC(=O)Cn1cc(/C=N/N2C(=O)C3C4C=CC(C4)C3C2=O)c2ccccc21 (stereo not given),inactive: 6.83%
22,Cn1c(=O)c2[nH]c(-c3ccccc3)c(O)c2n(C)c1=O,inconclusive: 34.6%
23,CCn1c(Cc2ccccc2)nnc1SCC(=O)Nc1ccccc1,inconclusive: 36%
24,O=C(NCc1nc(-c2ccc(C(F)(F)F)cc2)no1)Nc1cc(Cl)cc(Cl)c1,inactive: 4.69%

row,SMILES,inhibition
1,CCCN(c1nc(C)cc(OC)n1)S(=O)(=O)c1ccccc1,inconclusive: 32.7%
2,CNc1oc(-c2ccc(C)cc2)nc1P(=O)(c1ccccc1)c1ccccc1,inactive: -1.61%
3,O=C1C=C(c2ccccc2C(F)(F)F)C[C@@H](c2ccc3c(c2)OCO3)C1,inconclusive: 37.9%
4,O=C1OC(Nc2ccc3c(c2)OCO3)c2ccccc21 (stereo not given),inconclusive: 42.6%
5,O=C(NCC1CC1)c1cc([N+](=O)[O-])cc([N+](=O)[O-])c1,active: 67.9%
6,CCOC(=O)Cc1csc(NC(=O)Nc2ccc(Cl)cc2)n1,inactive: -19.6%
7,CSC(=S)N/N=C/c1ccccc1,inconclusive: 35%
8,CC(NC(=O)c1cc(COc2ccc3ncccc3c2)on1)c1ccc(F)cc1 (stereo not given),inactive: 11.4%
9,O=C(NCc1ccc(F)cc1)C1CCCN(c2nc3ccsc3c(=O)s2)C1 (stereo not given),inactive: -11.3%
10,O=C1C2C3C=CC(C4CC34)C2C(=O)N1Cc1ccco1 (stereo not given),active: 40.8%
11,CCCn1c(C(C)Nc2nc(-c3cc(Cl)c(N)c(Cl)c3)cs2)nc2cc(Cl)c(N3CCCCC3)cc21 (stereo not given),inactive: -14.7%
12,Cc1ccc(NCc2ccccc2F)cc1,inactive: 4.01%
13,C=CCNC(=S)NNC(=O)C(CC(C)C)CC(C)O (stereo not given),inconclusive: 32.5%
14,O=C(COc1ccc(C(=O)c2ccccc2)cc1)NC1CCCCCC1,inactive: -5.92%
15,CC1CCCCN1C(=O)CSc1nc2ccccc2[nH]1 (stereo not given),inconclusive: 33.4%
16,Cc1cc(NC(=O)c2ccc(Br)c([N+](=O)[O-])c2)no1,active: 64%
17,Cn1cccc1Cc1nnc(SCC(=O)N2CCN(c3ccccc3)CC2)n1-c1ccc(F)cc1,inconclusive: 38.6%
18,COc1ccc(-c2cc3ccccc3cn2)cc1,inconclusive: 33.9%
19,Cc1ccc(Cn2cc(S(=O)(=O)c3ccc(C(C)C)cc3)c(=O)c3cc4c(cc32)OCO4)cc1,inactive: 3.8%
20,COc1ccc(Nc2nnc(-c3ccc(C)cc3)c3ccccc23)cc1C(=O)N1CCCCC1,inconclusive: 38%
21,Cc1cccn2c(=O)c(C=O)c(N3CCCCCC3)nc12,inconclusive: 31.4%
22,Cc1ccc2scc(CN3CCCC3)c2c1,active: 38.3%
23,CN1CCN(C(=O)c2cccn(Cc3ccc(C(F)(F)F)cc3)c2=O)CC1,inconclusive: 40.5%

# Reference: PubChem BioAssay AID488965 (Broad Institute, 2010)
